Data from PubChem BioAssay AID743255 (National Center for Advancing Translational Sciences (NCATS), 2014).
Out of some 390,000 compounds screened, about 910 (0.23%) were called active. The inconclusive results got no clear call from the source; some entries with a clear call stand among them for comparison. Calls follow the shape of the dose curve; as a rule, active = well fitted inhibition curve with a large enough effect; inconclusive = small, poorly fitted or top-dose-only effect; inactive = no such curve, though single readings can be large or run the other way. Where the call is inconclusive, the potency comes from a doubtful curve fit. Some compounds were tested as several samples or in several runs, with calls that do not always agree.
Also: nearly all actives have a fitted effect of over 60% in size.
Potency is read from the fitted curve at half-maximal effect.

The chains behind the UniProt entries cited, without tags or fusion partners. Where a name states a change or a piece, a line headed by the entry shows the natural chain unless it says otherwise.
UniProt O94782: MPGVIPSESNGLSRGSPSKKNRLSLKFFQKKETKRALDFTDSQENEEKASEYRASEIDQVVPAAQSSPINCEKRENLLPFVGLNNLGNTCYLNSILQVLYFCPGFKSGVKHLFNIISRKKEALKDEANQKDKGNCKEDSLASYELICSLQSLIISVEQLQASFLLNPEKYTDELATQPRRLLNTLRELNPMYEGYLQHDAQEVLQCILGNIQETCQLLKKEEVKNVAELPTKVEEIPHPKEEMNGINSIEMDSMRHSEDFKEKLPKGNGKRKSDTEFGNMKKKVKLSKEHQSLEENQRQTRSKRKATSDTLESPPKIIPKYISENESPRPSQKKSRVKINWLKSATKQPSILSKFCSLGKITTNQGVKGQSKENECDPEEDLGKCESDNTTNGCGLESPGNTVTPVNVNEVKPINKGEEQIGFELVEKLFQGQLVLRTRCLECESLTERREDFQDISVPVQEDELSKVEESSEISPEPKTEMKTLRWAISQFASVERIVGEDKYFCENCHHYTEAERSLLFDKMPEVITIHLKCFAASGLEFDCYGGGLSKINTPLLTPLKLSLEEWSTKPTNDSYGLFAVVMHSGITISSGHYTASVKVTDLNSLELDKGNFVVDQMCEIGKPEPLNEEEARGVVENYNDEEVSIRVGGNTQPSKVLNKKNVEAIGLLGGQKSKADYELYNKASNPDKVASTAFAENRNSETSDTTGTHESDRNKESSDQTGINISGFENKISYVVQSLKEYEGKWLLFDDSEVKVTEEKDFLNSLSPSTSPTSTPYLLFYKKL

What follows are compounds tested against Ubiquitin carboxyl-terminal hydrolase 1 (Homo sapiens) (UniProt O94782) (assay: Inhibitors of USP1/UAF1: Primary Screen). Details: recombinant USP1/UAF1, Ub-Rhodamine cleavage fluorescence; series mostly up to 57.1 µM.
Outline: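 USP1/UAF1 complex (1 nM) preincubated 15 min at room temperature with compound, then Ub-Rho substrate (150 nM final) added. Kinetic fluorescence at 480/540 nm over 6 reads at 60 s intervals; 50 mM HEPES pH 7.8, 0.5 mM EDTA, 0.1 mg/ml BSA, 1 mM TCEP, 0.01% Tween-20.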
For `Cc1ccc(-c2cc(-c3ccc(C)cc3)[n+](-c3ccc(C(=O)O)cc3)c(-c3ccc(C)cc3)c2)cc1`, the Potency was “inactive”.
With `CN(C)C(=O)Oc1ccc(C(=O)c2ccccc2)cc1` the Potency was inconclusive: 0.631 µM [inhibitor, full curve, poor fit].
In the case of `CN1C(=O)NC(=O)/C(=C/c2ccc([N+](=O)[O-])s2)C1=O`, the Potency is reported as active: 25.1 µM.
In the case of `O=c1[nH]c(=O)n(-c2ccc(F)cc2)c(O)c1C=Nc1ccccc1N1CCCC1`, the Potency is reported as inconclusive: 11.2 µM [inhibitor, full curve].
For `O=c1[nH]c(=S)n(C2CC2)c(O)c1/C=N/Nc1ccccc1`, the Potency was “inactive”.
For `COc1ccc(P2(=O)Nc3ccccc3N2)cc1`, the Potency was inconclusive: 35.5 µM [inhibitor, partial curve].
With `COC(=O)C1=C(c2cccc(C#N)c2)C[C@@H]2CC[C@H]1N2C(=O)NCc1cc(C)oc1C(F)(F)F` the Potency was inconclusive: 6.31 µM [inhibitor, single point].
`CC(=O)c1c(C)n(CC2CCCO2)c2ccc(O)cc12` (stereo unspecified) was tested, and the Potency was inconclusive: 15.8 µM [inhibitor, partial curve].
`Cn1c(=O)oc2cc(S(=O)(=O)N3CCCC(C(=O)NCc4ccc5c(c4)OCO5)C3)ccc21` (stereo unspecified) was tested, and the Potency was inconclusive: 31.6 µM [inhibitor, single point].
In the case of `C=C1C(=O)O[C@@H]2C[C@@H](C)[C@@H]3C=CC(=O)[C@@]3(C)[C@@H](O)[C@H]12`, the Potency is reported as inconclusive: 8.91 µM [inhibitor, full curve, poor fit].
`Nc1c(C(=O)NCCCc2ccccc2)c2nc3ccccc3nc2n1Cc1cccs1` was tested, and the Potency was inconclusive: 28.2 µM [inhibitor, partial curve].
In the case of `CCCCOC(=O)c1ccccc1C(=O)OCc1ccccc1`, the Potency is reported as inconclusive: 28.2 µM [inhibitor, single point].
For `Nc1cccc2c(O)cccc12`, the Potency was inconclusive: 50.1 µM [inhibitor, partial curve, poor fit].
With `CC(C)N1C(=O)CC2(CC[N+](C)(CCOC(=O)C(O)(c3ccccc3)c3ccccc3)CC2)C1=O` (stereo unspecified) the Potency was “inactive”.
With `COc1ccc(Cn2c(N)c(C(=O)NCc3ccco3)c3nc4ccccc4nc32)cc1` the Potency was “inactive”.
In the case of `CC(C)CCNC(=O)c1c(N)n(CC2CCCO2)c2nc3ccccc3nc12` (stereo unspecified), the Potency is reported as inconclusive: 31.6 µM [inhibitor, single point].
In the case of `COc1ccccc1CN1CCCC(C(=O)c2ccccc2OC)C1` (stereo unspecified), the Potency is reported as “inactive”.
With `COC(=O)C1=C(c2ccc(OCc3ccccc3)cc2)C[C@@H]2CC[C@H]1N2C(=O)NCc1ccc(OC)c(OC)c1` the Potency was inconclusive: 6.31 µM [inhibitor, single point].
`COc1cc(/C=C2/SC(=S)N(Cc3ccccc3)C2=O)ccc1OCC(=O)O` was tested, and the Potency was inconclusive: 39.8 µM [inhibitor, partial curve].
`CC1CN(c2ccccc2)NC1=O` (stereo unspecified) was tested, and the Potency was inconclusive: 17.8 µM [inhibitor, partial curve].
For `COc1ccc(C(=O)N2CCCC2=O)cc1`, the Potency was inconclusive: 14.1 µM [inhibitor, partial curve, poor fit].
With `CCCCCCn1c(O)c(C=NCCN2CCOCC2)c(=O)[nH]c1=O` the Potency was “inactive”.
In the case of `COc1cc(CC2(CCc3ccncc3)C(=O)NC(=O)NC2=O)cc(OC)c1OC`, the Potency is reported as “inactive”.
`CC(C)CNP(=S)(c1ccccc1)C(C)(C)C` (stereo unspecified) was tested, and the Potency was “inactive”.
`CC(C)CCNC(=O)Cn1c(=O)oc2cc(S(=O)(=O)N3CCc4ccccc43)ccc21` was tested, and the Potency was inconclusive: 0.708 µM [inhibitor, full curve, poor fit].
With `Cc1cccc(NC(=O)C(C)N2CC=C(c3ccccc3)CC2)c1` (stereo unspecified) the Potency was inconclusive: 44.7 µM [inhibitor, partial curve, poor fit].
For `O=C(C[C@@H]1C[C@@H]2c3cc(NS(=O)(=O)c4ccc(F)cc4)ccc3O[C@@H]2[C@H](CO)O1)N1CCc2ccccc2C1`, the Potency was inconclusive: 39.8 µM [inhibitor, partial curve].
In the case of `O=C1NC(=O)C(=Cc2ccc(-c3ccc(Cl)cc3)o2)C(=O)N1`, the Potency is reported as inconclusive: 39.8 µM [inhibitor, single point].
In the case of `COc1cc(Cn2c(N)c(C(=O)NCc3ccco3)c3nc4ccccc4nc32)cc(OC)c1OC`, the Potency is reported as active: 22.4 µM.
`CC(=O)N(C)C1=Nc2ccc(Cl)cc2C(c2ccccc2)=[N+]([O-])C1` was tested, and the Potency was inconclusive: 7.08 µM [inhibitor, single point].
`COc1ccc(C2=CC(c3ccc(OC)c(OC)c3)c3c(c4ccccc4oc3=O)O2)cc1OC` (stereo unspecified) was tested, and the Potency was inconclusive: 39.8 µM [inhibitor, partial curve].
With `C[C@]12CCC(=O)C=C1CC[C@@H]1[C@@H]2C(=O)C[C@]2(C)C(=O)CC[C@@H]12` the Potency was inconclusive: 89.1 µM [inhibitor, partial curve, poor fit].
`CCOc1ccc(N=Cc2c(O)n(CCc3ccc(OC)c(OC)c3)c(=O)[nH]c2=O)cc1` was tested, and the Potency was “inactive”.
`CC(C)c1ccc(-n2c(O)c(C=NC(CCS(C)=O)C(=O)O)c(=O)[nH]c2=S)cc1` (stereo unspecified) was tested, and the Potency was inconclusive: 28.2 µM [inhibitor, partial curve, poor fit].
In the case of `CC(=O)N1CCCc2cc(S(=O)(=O)N3CCCC(C(=O)N4CCN(c5ccccc5F)CC4)C3)ccc21` (stereo unspecified), the Potency is reported as inconclusive: 10 µM [inhibitor, single point].
For `COc1ccc2cc1Oc1ccc(cc1)C[C@H]1c3cc(c(OC)cc3CCN1C)Oc1c(OC)c(OC)cc3c1[C@@H](C2)N(C)CC3`, the Potency was inconclusive: 44.7 µM [inhibitor, partial curve, poor fit].
In the case of `O=c1c(/C=N/N2CCOCC2)c(O)n(-c2ccccc2)c(=S)n1-c1ccccc1`, the Potency is reported as inconclusive: 44.7 µM [inhibitor, partial curve, poor fit].
With `Cc1cccc(-n2c(/C=C/c3c[nH]c4ccccc34)nc3ccccc3c2=O)c1` the Potency was inconclusive: 39.8 µM [inhibitor, partial curve, poor fit].
`O=c1[nH]c(=O)n(-c2ccccc2F)c(O)c1/C=C1\C=Nc2ccccc21` was tested, and the Potency was inconclusive: 44.7 µM [inhibitor, partial curve, poor fit].
With `CCC(C)N1Cc2ccccc2C1=N` (stereo unspecified) the Potency was inconclusive: 3.98 µM [inhibitor, full curve, poor fit].
For `CSc1ccc(CN2CCN(C(=O)COc3cccc(C)c3)CC2)cc1`, the Potency was inconclusive: 0.355 µM [inhibitor, full curve, poor fit].
With `Cc1cccc(N2C(=O)NC(=O)/C(=C/c3ccc([N+](=O)[O-])o3)C2=O)c1` the Potency was inconclusive: 28.2 µM [inhibitor, single point].
With `CN(C)Cc1c[nH]c2cc([N+](=O)[O-])ccc12` the Potency was inconclusive: 89.1 µM [inhibitor, partial curve, poor fit].
`Nc1ccncc1` was tested, and the Potency was inconclusive: 14.1 µM [inhibitor, partial curve, poor fit].
For `O=C1c2ccccc2C(=O)N1SC1CCCCC1`, the Potency was inconclusive: 39.8 µM [inhibitor, partial curve].
`O=C1NC(=S)NC(=O)C1=Cc1cccc2cc3ccccc3cc12` was tested, and the Potency was inconclusive: 31.6 µM [inhibitor, partial curve].
For `CN1C[C@H](C(=O)N[C@]2(C)O[C@@]3(O)[C@@H]4CCCN4C(=O)[C@H](Cc4ccccc4)N3C2=O)CC2c3cccc4[nH]cc(c34)C[C@H]21` (stereo partly specified), the Potency was inconclusive: 44.7 µM [inhibitor, partial curve, poor fit].
In the case of `Cc1ccc(Cl)cc1Nc1nn2c(=O)c3ccc(C(=O)NCc4cccs4)cc3nc2s1`, the Potency is reported as inconclusive: 20 µM [inhibitor, partial curve, poor fit].
In the case of `CCCCC(=O)N/N=C/c1c(O)n(CC)c(=S)n(CC)c1=O`, the Potency is reported as inconclusive: 35.5 µM [inhibitor, single point].
With `CCn1nc(/C=C/c2ccccc2)nc2c(=O)n(C)c(=O)nc1-2` the Potency was active: 1.12 µM.
In the case of `COc1cccc(C2(C#N)CCN(C)CC2)c1`, the Potency is reported as inconclusive: 1 µM [inhibitor, full curve, poor fit].
For `COC(=O)c1nc(-c2ccc3c(n2)C(=O)C(N)=C(OC)C3=O)c(N)c(-c2ccc(OC)c(OC)c2O)c1C`, the Potency was active: 7.08 µM.
In the case of `C[n+]1c2cc(N)ccc2cc2ccc(N)cc21`, the Potency is reported as active: 3.98 µM.
`CC1(C)C(=O)C=C[C@]2(C)[C@H]3CC[C@@]4(C)[C@H](c5ccoc5)OC(=O)[C@H]5O[C@]54[C@]3(C)[C@H](O)C[C@@H]12` was tested, and the Potency was inconclusive: 3.98 µM [inhibitor, partial curve, poor fit].
With `COC(=O)C1=C(c2ccc(OC)c(OC)c2)C[C@@H]2CC[C@H]1N2C(=O)NC1CC1` the Potency was inconclusive: 5.62 µM [inhibitor, partial curve].
In the case of `CCOC(=O)c1c(NC(=O)c2c(N)n(CCCOC)c3nc4ccccc4nc23)sc2c1CCCC2`, the Potency is reported as inconclusive: 0.447 µM [inhibitor, full curve, poor fit].
In the case of `CCCCCn1c(=O)c(C(=O)Nc2cnccn2)c(O)c2ccccc21`, the Potency is reported as inconclusive: 44.7 µM [inhibitor, partial curve, poor fit].
`Oc1ccccc1-[n+]1c(-c2ccccc2)cc(-c2ccccc2)cc1-c1ccccc1` was tested, and the Potency was inconclusive: 56.2 µM [inhibitor, partial curve, poor fit].
With `COc1ccc(N2C(=O)/C(=C/c3ccco3)C(=O)NC2=S)cc1` the Potency was inconclusive: 39.8 µM [inhibitor, partial curve, poor fit].
In the case of `Nc1ccc(Sc2ccc(N)cc2)cc1`, the Potency is reported as “inactive”.
`CCOc1ccc(N2C(=O)/C(=C/c3ccco3)C(=O)NC2=S)cc1` was tested, and the Potency was active: 22.4 µM.
